Data on 42 sequences can be found in PMC7819943, “Rice protein-binding microarrays: a tool to detect cis-acting elements near promoter regions in rice”.

Sequences of proteins named here, by UniProt entry; tags and fusion partners are left off.
UniProt Q0JBA9, entry or part of it: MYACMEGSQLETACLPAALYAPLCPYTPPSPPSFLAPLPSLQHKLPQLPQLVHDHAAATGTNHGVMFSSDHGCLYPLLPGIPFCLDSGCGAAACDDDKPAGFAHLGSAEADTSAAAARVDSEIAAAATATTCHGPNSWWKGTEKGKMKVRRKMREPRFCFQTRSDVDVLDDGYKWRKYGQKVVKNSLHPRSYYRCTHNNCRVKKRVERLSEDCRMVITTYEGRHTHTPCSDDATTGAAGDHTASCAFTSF

The list shows a part of the results.

The test addresses OsWRKY34 (Oryza sativa, UniProt Q0JBA9 1-250). Kind of test: protein-binding microarray (RPBM); PBS, 2% BSA, 51.3 ng/ul salmon testes DNA, 50 uM zinc acetate, 200 nM TF, 25 C, 1 h; high values mean tight binding. The conditions noted are these: protein: recombinant; tags: N-terminal polyhistidine and DsRed monomer fusion (pET32a); label: CyDye5-dUTP incorporated in the synthesized complementary strand; 3' TTTTT single-stranded linker to array surface; dsDNA, one strand shown. In a few lines: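 Per-feature fluorescence intensity (arbitrary units), read on an Axon 4000B scanner, is the binding signal. Transcription factors carrying an N-terminal polyhistidine tag and DsRed fusion were expressed in E. coli BL21-CodonPlus and purified on Ni–NTA. A custom Agilent array, made double-stranded by primer extension with Cy5-dUTP and blocked with 2% BSA, was incubated with 200 nM protein in PBS, 2% BSA, salmon testes DNA and 50 µM zinc acetate at 25 °C for 1 h and then washed.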
“GTTATATGCCATTAACATCTTGCGTACATATAAGTTTCATCGGAGTCACCTAGTGCAG”: the binding signal was 8810 fluorescence intensity (a.u.). The value for “GAAGAAGAGGGTTGTTTTTTTTTTCCTATTTTTCCCTTTACGGAGTCACCTAGTGCAG” was 11900 fluorescence intensity (a.u.); that for “TTATATAAGTACACGCTCCTTCGCTCGCTGCGTGCACTGCCGGAGTCACCTAGTGCAG” was 8380 fluorescence intensity (a.u.). With “TGCGGCTTTGATTTGCGGGGTTCACACACGAGTAATTGCACGGAGTCACCTAGTGCAG”, the binding signal was 10900 fluorescence intensity (a.u.). The value for “CCATAATCCTTATTTTTCATAGTTGCCTCCAATTTCACTCCGGAGTCACCTAGTGCAG” was 8390 fluorescence intensity (a.u.); that for “TCTTCTTCGCAGGACACTGGTCCATTTCCTCCAGTTTCATCGGAGTCACCTAGTGCAG” was 8320 fluorescence intensity (a.u.).

Take “TGCTCCTGATCATATCGCTGCCTCTGCACCGGCCTAGCCACGGAGTCACCTAGTGCAG”: the binding signal was 8320 fluorescence intensity (a.u.). The value for “CATATCTACCTTCGACATTTTTCACTCTCGCACTCTCCATCGGAGTCACCTAGTGCAG” was 8870 fluorescence intensity (a.u.); that for “TTTTAGTACGTGTTTGTCCATTCGTCTTATTCAAAAAATTCGGAGTCACCTAGTGCAG” was 8220 fluorescence intensity (a.u.); that for “ACACGCTAGCTAGTCCCTGTTCCTTTTACGTTCTTGTATTCGGAGTCACCTAGTGCAG” was 8100 fluorescence intensity (a.u.).

Turning to “TTCTCATGAAATGTATTGGGCAATATCTGTCCCTTGCAACCGGAGTCACCTAGTGCAG”, the binding signal was 8340 fluorescence intensity (a.u.).

On to “TTCCTCTCCGCTCACGTGCTTCGCGCCTTCGTCGACGCTCCGGAGTCACCTAGTGCAG”, for which the binding signal is 9720 fluorescence intensity (a.u.).

For “GCACAGTAACCCTTATATTCTAATCCTAACTACACTTATCCGGAGTCACCTAGTGCAG”, the binding signal is 8510 fluorescence intensity (a.u.). The same measure for “TTACACGCAATCTGTATAATTAGTTTTGTTCTTTGTCTATCGGAGTCACCTAGTGCAG”: 9110 fluorescence intensity (a.u.). For “ACGGTGAAAACATTGTGTGGGTGTGGCATCTTATTTCTCCCGGAGTCACCTAGTGCAG”, the binding signal was 8380 fluorescence intensity (a.u.).

For “CCCTTTCATACTTCCTATCTATCCATCTACCGAAATACAACGGAGTCACCTAGTGCAG”, the binding signal was 8290 fluorescence intensity (a.u.). For “CGATATTGTTTTCATTTCCGATTTTACCGTTTTCGATTTTCGGAGTCACCTAGTGCAG”, the binding signal is 11700 fluorescence intensity (a.u.).

As to “GCTCCACCTGCACACGTGTCCCCACCCCATTGGCTCCCTCCGGAGTCACCTAGTGCAG”, the binding signal was 9200 fluorescence intensity (a.u.). For the sequence “AATACTAGCCATTCATCCATTTCGCTTTTCCAATCCCACCCGGAGTCACCTAGTGCAG”, the binding signal is 8520 fluorescence intensity (a.u.). For the sequence “GGATGGGATGGACGCGCGCGCGAGCAACACGGCGAAGTTTCGGAGTCACCTAGTGCAG”, the binding signal is 8050 fluorescence intensity (a.u.). On to “AGTTTTTGTGGTGTTTGGTTGGAGGGCAAGGTGGATGGGGCGGAGTCACCTAGTGCAG”, for which the binding signal was 13100 fluorescence intensity (a.u.).

Consider “GTGGCGGCGGAGGAGGTGGGATGGGGATTTGATGATGGCCCGGAGTCACCTAGTGCAG”, for which the binding signal is 8320 fluorescence intensity (a.u.). For the sequence “CCGCATCATCCACCTCCTTGCCCTTATCCGATAGCCATTACGGAGTCACCTAGTGCAG”, the binding signal was 9440 fluorescence intensity (a.u.). On to “GATCTATGACATCTATGATACTGATTCCATGTTACCGTCACGGAGTCACCTAGTGCAG”, for which the binding signal was 8770 fluorescence intensity (a.u.). The value for “GTTGCGGGAGGAGGAGGGAGGCGGGCCGGGTCCAAGCTGACGGAGTCACCTAGTGCAG” was 9340 fluorescence intensity (a.u.). For the sequence “CATTGTGTGTGATTTTGCAGCTAGATTTTTAGTACGTTATCGGAGTCACCTAGTGCAG”, the binding signal was 9350 fluorescence intensity (a.u.). For “GAAGCTGGGTTATACTTTCACCATTTTTTTACTCGATCGACGGAGTCACCTAGTGCAG”, the binding signal is 8460 fluorescence intensity (a.u.).

With “CATCCACGCTTTCCCGCATCCTTAGACTGAGTTGTATGCTCGGAGTCACCTAGTGCAG”, the binding signal was 8320 fluorescence intensity (a.u.). On to “CCTTCCAACATGTTTATTATGCATGAGATGTGTGCAACGACGGAGTCACCTAGTGCAG”, for which the binding signal was 8120 fluorescence intensity (a.u.).

Consider “CAACTTTGTTGTTGACAACTTTCCCATTTGAAATCATTTACGGAGTCACCTAGTGCAG”, for which the binding signal is 8500 fluorescence intensity (a.u.). “AGTTTCAGTGGGTGTTAGTGTGTCACCATCCATGGCAAGCCGGAGTCACCTAGTGCAG”: the binding signal was 10400 fluorescence intensity (a.u.). As to “GTGAGAGGTGGGTGGGGACGTCAGACTTACGGCGTAGGAACGGAGTCACCTAGTGCAG”, the binding signal was 9100 fluorescence intensity (a.u.).

For “CTATTTGATTCAACAGGTTTCATGTCATCTAGCTTTCTAACGGAGTCACCTAGTGCAG”, the binding signal was 10700 fluorescence intensity (a.u.). Take “GGACACTGAAGAGCATAATGGGGATGTTTGTTTCAAGAGACGGAGTCACCTAGTGCAG”: the binding signal was 9380 fluorescence intensity (a.u.). The value for “TGGTGATGTGGATGTGATGTTTACATTTGCTGCTGCCTTTCGGAGTCACCTAGTGCAG” was 10100 fluorescence intensity (a.u.). The value for “GTCCTCTGACTCATCATGTTCATCCTCTTCGTCACTTTCTCGGAGTCACCTAGTGCAG” was 9300 fluorescence intensity (a.u.); that for “CACTCCAACGCCGCCGCCGCCGCCGCCGCTTCGGAAGTTCCGGAGTCACCTAGTGCAG” was 8360 fluorescence intensity (a.u.). As for “GTTATGTACTTATGTGCCATCAAGTTTAGTTGATGTATTTCGGAGTCACCTAGTGCAG”, the binding signal was 8070 fluorescence intensity (a.u.).

Consider “AACCCCAAACCATGCCGAAAACACACATCTTCTACAATTTCGGAGTCACCTAGTGCAG”, for which the binding signal was 11200 fluorescence intensity (a.u.).

On to “GACAAGAATCTCTTCCCATTTTATTTGCGAATTATTCTCACGGAGTCACCTAGTGCAG”, for which the binding signal was 9010 fluorescence intensity (a.u.). With “CTCTTTCCATATATCCTGCTGTCTATATCTATACTTCATTCGGAGTCACCTAGTGCAG”, the binding signal is 9010 fluorescence intensity (a.u.). Take “CGCAACGGCGCAACACAACCACTTCGTCGTCTTCCTCTGCCGGAGTCACCTAGTGCAG”: the binding signal was 9410 fluorescence intensity (a.u.).
